This assay deals with hIL10Rb ECD antigen (human) (UniProt Q08334). Briefly: periplasmic extract ELISA (PE-ELISA) of phage clones. In general terms: ELISA stands for enzyme-linked immunosorbent assay.

Amino acid sequences for entries named in this document (tags omitted). A change or cut given only in a name is not applied to a line headed by its entry.
UniProt Q08334: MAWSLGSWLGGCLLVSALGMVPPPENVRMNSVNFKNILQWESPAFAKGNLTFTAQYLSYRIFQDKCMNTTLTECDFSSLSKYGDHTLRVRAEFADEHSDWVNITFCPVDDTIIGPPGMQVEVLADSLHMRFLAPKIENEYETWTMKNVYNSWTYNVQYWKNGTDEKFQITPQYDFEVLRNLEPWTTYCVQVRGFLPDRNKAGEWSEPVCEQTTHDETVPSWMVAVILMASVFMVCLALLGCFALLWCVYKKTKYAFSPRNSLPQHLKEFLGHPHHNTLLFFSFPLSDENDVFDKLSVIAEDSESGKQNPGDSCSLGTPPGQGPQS

These are yes or no findings as the source states them, for the method shown. Some entries that bind do so weakly or less than the wild type.

The values that follow come from US20250163167A1.

B1: hIL10Rb VHH-4 (VHH)
VHH: QVQLQESGGGSIQAGGSLRLSCAASRYLYSIDYMAWFRQSPGKEREPVAVIYTASGATFYPDSVKGRFTISQDNAKMTVYLQMNSLKSEDTAMYYCAAVRKTDSYLFDAQSFTYWGQGTQVTVSS
For the molecule B1, the binding result is on record as “binds”.

B2: hIL10Rb VHH-6 (VHH)
VHH: QVQLQESGGGSIQAGGSLTLSCAASRDLYSTNYVAWFRQSPGKEREAVAVIYTASGATLYSDSVKGRFTISQDNAKMTVYLQMNSLKSEDTAMYYCAAVRKTGHYLFDAQSFTYWGQGTQVTVSS
In the case of B2, the binding result is “binds”.
